Test results reported in patent publication US10174293B1, “Recombinant PB1 bacteriophages and uses thereof” (Charles Stark Draper Laboratory, Inc., priority 2018, dated 2019).
At least one compound was matched to its structure with a doubt left.

System: drug resistant strain
Assay: Antibiotic susceptibility profiling with recombinant PB1 phages, drug resistant strain
Type: cell-based, Pseudomonas aeruginosa
Conditions: drug resistant strain (FIG. 4A)

SMILES: C[C@H]1COc2c(N3CCN(C)CC3)c(F)cc3c(=O)c(C(=O)O)cn1c23 [levofloxacin]
- μ value over time: no such correlation was observed
